From patent US12115149B2, “Formulations, methods, kits, and dosage forms” (MedRegen, LLC, priority 2020, dated 2024)
Some of these results come from one statement about several compounds together.

Experiment: PK/PD study of Formulation A s.c. in mini pigs
Conditions: Formulation A 0.132 ml/kg s.c. (AMD3100 3.168 mg/kg, FK506 0.066 mg/kg), n=6

C=CC[C@@H]1/C=C(\C)C[C@H](C)C[C@H](OC)[C@H]2O[C@@](O)(C(=O)C(=O)N3CCCC[C@H]3C(=O)O[C@H](/C(C)=C/[C@@H]3CC[C@@H](O)[C@H](OC)C3)[C@H](C)[C@@H](O)CC1=O)[C@H](C)C[C@@H]2OC [FK506, Tacrolimus]
time of peak blood levels: 1 to 2 h
